The campaign covered roughly 310,000 compounds. About 17,000 (5.5%) were called active. This list was built around the results that the source calls inconclusive (neither active nor inactive); the mix of calls is not that of the screen. Calls follow the shape of the dose curve; as a rule, active = well fitted inhibition curve with a large enough effect; inconclusive = small, poorly fitted or top-dose-only effect, or effect the other way; inactive = no such curve, though single readings can be large or run the other way. Potencies beside an inconclusive call are fits to weak or partial responses and may not hold up.
target: Nuclear receptor ROR-gamma (Mus musculus) (UniProt P51450); assay: qHTS for inhibitors of ROR gamma transcriptional activity; conditions: Drosophila S2 Gal4-RORgamma UAS-luciferase reporter, 20 h; series mostly up to 53.6 µM; also: nearly all actives have a fitted effect of over 60% in size
In short: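 Schneider cells (Drosophila), stable Gal4 DBD–ROR gamma + UAS-luc; 1 hr cmpd preincubation; Cu2+ induction 700 uM final; 20 hr ambient; luminescence.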
Potency is read from the fitted curve at half-maximal effect.

The chains behind the UniProt entries cited, without tags or fusion partners. Where a name states a change or a piece, a line headed by the entry shows the natural chain unless it says otherwise.
UniProt P51450: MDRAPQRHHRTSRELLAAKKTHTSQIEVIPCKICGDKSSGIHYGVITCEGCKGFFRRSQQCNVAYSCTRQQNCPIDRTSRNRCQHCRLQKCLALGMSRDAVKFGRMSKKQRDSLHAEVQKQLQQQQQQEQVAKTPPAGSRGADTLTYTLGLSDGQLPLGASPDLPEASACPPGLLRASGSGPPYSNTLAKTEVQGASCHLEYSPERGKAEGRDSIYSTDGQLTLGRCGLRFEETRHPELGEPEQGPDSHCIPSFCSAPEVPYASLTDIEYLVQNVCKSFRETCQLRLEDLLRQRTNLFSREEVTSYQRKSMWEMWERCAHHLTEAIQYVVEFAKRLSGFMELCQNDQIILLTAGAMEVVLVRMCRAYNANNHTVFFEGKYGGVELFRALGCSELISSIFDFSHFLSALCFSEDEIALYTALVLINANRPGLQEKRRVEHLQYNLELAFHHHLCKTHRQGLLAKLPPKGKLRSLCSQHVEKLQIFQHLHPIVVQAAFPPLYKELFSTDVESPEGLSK

Potency, inconclusive:
COc1ccc2c(c1)C(=O)[C@H](OC(=O)NS(=O)(=O)c1ccc(C)cc1)[C@@H](c1ccc(OC)c(Br)c1)O2 35.5 µM [inhibitor, single point]
CCCn1c(=O)[nH]c(=O)c2c1nc(-c1ccc(C(F)(F)F)cc1)n2CCOC 12.6 µM [activator, single point]
Oc1ccccc1-c1cc(-c2ccc(F)cc2)n[nH]1 14.1 µM [inhibitor, single point]
Cc1ccccc1Cn1ccc(NC(=O)c2onc(C)c2Cl)n1 0.316 µM [activator, partial curve, poor fit]
O=C(CSc1nc(Cc2ccccc2)nc2ccccc12)Nc1nc2c(s1)CCCC2 7.94 µM [activator, partial curve]
CCC(Sc1nnnn1C)C(=O)Nc1ccc(C(C)=O)cc1 (stereo not drawn) 2.82 µM [activator, full curve]
Cc1ccc(N2C(=O)N(CC(=O)Nc3ccc([N+](=O)[O-])cc3)C(=O)C2C)cc1 (stereo not drawn) 10 µM [activator, partial curve]
NC(=O)c1c(NC(=O)CSc2nc3c(c(C(F)(F)F)n2)CCc2ccccc2-3)sc2c1CCCC2 3.98 µM [activator, single point]
CC(c1ccccc1)C1C(C#N)=C(N)SC(N)=C1C#N (stereo not drawn) 22.4 µM [inhibitor, single point]
O=C(NCc1ccc(F)cc1)c1cc2sccc2n1Cc1ccc(F)cc1 31.6 µM [activator, single point]
O=C(NCc1ccc(F)cc1)c1ccc(S(=O)(=O)Nc2cccc(C(F)(F)F)c2)cc1 11.2 µM [activator, partial curve]
Nc1ccc(C(=O)Nc2ccco2)cc1 0.398 µM [inhibitor, single point]
CC(=O)Nc1cccc(Oc2ncnc3scc(-c4ccc(C(C)C)cc4)c23)c1 15.8 µM [activator, single point]
COc1ccc(NC(=S)NC(=O)c2csnn2)cc1 28.2 µM [inhibitor, single point]
CC(C)NC(=O)NC(=O)CSc1nnc(COc2ccccc2F)n1C(C)C1CC2CCC1C2 (stereo not drawn) 20 µM [inhibitor, single point]
Cn1nc(C(C)(C)C)cc1C(=O)NNC(=O)c1cccc(Cl)c1 14.1 µM [activator, single point]
O=C(NCc1ccccc1)c1ccc(S(=O)(=O)N2CCCc3ccccc32)cc1 11.2 µM [activator, single point]
CCCNC(=O)c1nc2ncc(Br)cn2n1 35.5 µM [inhibitor, single point]
COC(=O)c1ccc(NC(=O)Nc2ccc(F)cc2)cc1 2.24 µM [activator, full curve, poor fit]
CC(=O)c1c(O)cc(O)c(C(C)=O)c1O 2.82 µM [inhibitor, single point]
NC(=O)COC(=O)/C=C/c1ccc2ccccc2n1 35.5 µM [inhibitor, single point]
CCOC(=O)C(=O)Nc1nnc(CCc2ccccc2)s1 15.8 µM [activator, single point]
CCOC(=O)N1CCN(C(=O)c2ccc(N(C)S(=O)(=O)c3ccc(C)cc3)cc2)CC1 0.224 µM [activator, partial curve]
Cc1cccc(C(=O)N(Cc2nc3ccccc3c(=O)[nH]2)C2CCCCC2)c1 2.51 µM [inhibitor, full curve, poor fit]
Cc1c(NC(=S)NC(=O)c2ccc(COc3ccccc3)cc2)cccc1C(=O)O 35.5 µM [inhibitor, single point]
O=C(Nc1nnc(C2CC2)s1)c1ccc(Cl)c(S(=O)(=O)N2CCc3ccccc3C2)c1 35.5 µM [inhibitor, single point]
O=C(Nc1cnn(C23CC4CC(CC(C4)C2)C3)c1)c1cnn2c(C(F)(F)F)cc(-c3ccco3)nc12 2.82 µM [inhibitor, single point]
Cc1ccc(NC(=O)COc2ccccc2C(=O)NCCc2ccccc2)cc1 11.2 µM [activator, single point]
CCOC(=O)c1[nH]c2ccccc2c1NC(=O)c1ccc(S(=O)(=O)N2CCOCC2)cc1 5.62 µM [activator, partial curve]
CCn1c(=O)n(CC)c2cc(S(=O)(=O)N3CCc4ccccc43)ccc21 0.794 µM [activator, full curve]
CC(=O)c1cccc(NC(=O)c2ccc(C)o2)c1 8.91 µM [activator, partial curve]
N#C/C(=C\c1cccs1)C(=O)NCc1cccnc1 17.8 µM [activator, single point]
O=C(Oc1cccc(-n2cnnn2)c1)c1ccco1 8.91 µM [activator, single point]
Cc1ncc(CO)c(/C=N/NC(=S)Nc2cccc(Cl)c2)c1O 17.8 µM [inhibitor, single point]
COC(=O)CN1C(=S)N(c2ccc(OC)cc2)C(=O)/C1=C/c1ccc(N2CCOCC2)cc1 14.1 µM [activator, single point]
CCOC(=O)c1[nH]c(C)c(C(=O)OCC(=O)N2c3ccccc3CC2C)c1C (stereo not drawn) 12.6 µM [activator, single point]
FC(F)(F)c1cccc(CNC2CCN(Cc3ccccc3)CC2)c1 2.82 µM [inhibitor, full curve]
Cc1ccc(OCCn2nnc3ccccc32)cc1C 5.01 µM [activator, partial curve]
O=C(NN=C1C2CC3CC(C2)CC1C3)c1cc(Cl)ccc1O 15.8 µM [inhibitor, single point]
CCOc1ccc(-c2cc(N3C(=O)Nc4ccccc4N3O)on2)cc1 17.8 µM [inhibitor, partial curve, poor fit]
ClC(Cl)(Cl)c1nc(N/N=C/c2ccncc2)c2ccccc2n1 11.2 µM [inhibitor, single point]

Compounds above containing fluorine (9):
Potency, inconclusive:
CCCn1c(=O)[nH]c(=O)c2c1nc(-c1ccc(C(F)(F)F)cc1)n2CCOC 12.6 µM [activator, single point]
Oc1ccccc1-c1cc(-c2ccc(F)cc2)n[nH]1 14.1 µM [inhibitor, single point]
NC(=O)c1c(NC(=O)CSc2nc3c(c(C(F)(F)F)n2)CCc2ccccc2-3)sc2c1CCCC2 3.98 µM [activator, single point]
O=C(NCc1ccc(F)cc1)c1cc2sccc2n1Cc1ccc(F)cc1 31.6 µM [activator, single point]
O=C(NCc1ccc(F)cc1)c1ccc(S(=O)(=O)Nc2cccc(C(F)(F)F)c2)cc1 11.2 µM [activator, partial curve]
CC(C)NC(=O)NC(=O)CSc1nnc(COc2ccccc2F)n1C(C)C1CC2CCC1C2 (stereo not drawn) 20 µM [inhibitor, single point]
COC(=O)c1ccc(NC(=O)Nc2ccc(F)cc2)cc1 2.24 µM [activator, full curve, poor fit]
O=C(Nc1cnn(C23CC4CC(CC(C4)C2)C3)c1)c1cnn2c(C(F)(F)F)cc(-c3ccco3)nc12 2.82 µM [inhibitor, single point]
FC(F)(F)c1cccc(CNC2CCN(Cc3ccccc3)CC2)c1 2.82 µM [inhibitor, full curve]

Quoted at random: two entries already listed, in no set order.
Potency, inconclusive:
O=C(NCc1ccc(F)cc1)c1cc2sccc2n1Cc1ccc(F)cc1 31.6 µM [activator, single point]
O=C(CSc1nc(Cc2ccccc2)nc2ccccc12)Nc1nc2c(s1)CCCC2 7.94 µM [activator, partial curve]

Following part:

Potency, inactive:
CCOC(=O)COc1c(OC)cc(Cl)cc1C1Nc2ccccc2C(=O)N1c1ccccc1 (stereo not drawn)
Nc1cc(N)nc(SCC(=O)Nc2ccccc2N2CCOCC2)n1
Cc1ccc(S(=O)(=O)N2CCOCC2)cc1NC(=O)COC(=O)c1ccccc1OCc1c(C)noc1C
CN(C)c1ncc2ncc(=O)n(CCc3ccccc3)c2n1
COc1ccc(-c2nnc(Nc3ccc(CC(N)=O)cc3)c3ccccc23)cc1
COc1ccc(NC(=O)C2CCC(=O)N2C(=O)OCc2ccccc2)cc1 (stereo not drawn)
COc1ccc(-c2cc(=O)oc3cc(OC(=O)C4CCCCC4)c(Cl)cc23)cc1
Cc1ccc(S(=O)(=O)NC(=NCC(=O)O)c2ccccc2)cc1
CCOC(=O)c1ccc(N2C(=O)C(CC(N)=O)N(NC(=O)c3cccc(F)c3)C2=S)cc1 (stereo not drawn)
Cc1ccc2c(c1)COc1c3ccc(C(=O)N[C@@H](CO)C(C)C)cc3nn1-2
C=CCn1c(Cc2ccccc2)nnc1SCc1nc2ccccc2c(=O)[nH]1
Cc1ccccc1Nc1c(-c2cccnc2)nc2ccccn12
COc1ccccc1-c1cc(NCc2ccccc2)ncn1
Cc1ccc(Nc2nc(N)nc(CN3CCN(C)CC3)n2)cc1
CC(C)n1c(C(=O)OCC(=O)NCc2ccc3c(c2)OCO3)cc2occc21
Cn1c(=O)n(Cc2ccc(F)cc2)c(=O)c2c1nc1n2CCCN1C1CCCCC1
Cc1ccc(CN2C3CCCC2CC(NC(=O)c2ccc(F)cc2)C3)cc1 (stereo not drawn)
COc1cccc(NC(=O)C2CCCN(c3ncnc4c3nc3n4CCCCC3)C2)c1 (stereo not drawn)
CN1CCN(CCCOc2ccc(-c3ccccc3)cc2)CC1

Potency, active:
S=C1NC(c2ccccc2)=NCN1c1ccc(Cl)cc1 11.2 µM
O=C(NNC(=S)NC(=O)c1cccnc1)c1ccc(F)cc1 15.8 µM
CCOc1ccc2c(c1)C(C)=CC(C)(C)N2S(=O)(=O)c1ccc(C)cc1 3.98 µM
CC(/C=C/c1ccc(N(C)C)cc1)=N\N=C(/N)SC1CC(=O)N(c2ccc(C(=O)O)cc2)C1=O (stereo not drawn) 0.794 µM
C/C(=C\C(=O)c1ccccc1)NNC(=O)c1ccc(Cl)cc1 7.08 µM
Cc1ccc(C(=O)NC(=S)NNC(=O)COc2ccc([N+](=O)[O-])cc2)cc1 11.2 µM
CCCC(=O)NC(c1ccccc1Cl)c1ccc2cccnc2c1O (stereo not drawn) 2.82 µM
CC(C)(C)c1ccc(-c2csc(NNC3=NCCCCC3)n2)cc1 12.6 µM
CC(C)CC(=O)NC(=S)Nc1ccc(S(=O)(=O)N2CCCC2)cc1 15.8 µM
O=c1c2cccnc2[nH]c(=S)n1CCCN1CCN(c2ccccc2F)CC1 2.24 µM
COc1cccc2cc(C(N)=O)/c(=N\NC(=O)c3ccccc3)oc12 7.08 µM
CCCCCCCCNC(C)C(O)c1ccc(SC(C)C)cc1 (stereo not drawn) 11.2 µM
Cc1ccn2c(c1)nc(=S)n2C(=O)c1ccccc1 3.98 µM
